In paper PMC2946365:
Results are given in words; binding and its absence hold for the method and conditions named. Binding seen in cells or lysates may run through a third protein. Some binding calls cover weakened binding; strength is not graded here. Sequences can lack the tags named with a protein.

Columns and labels:
Assay in all cases: pull-down; GST pull-down of His-SUMO with GST fusions (input, unbound, bound); methods in File S1
GST-Hus5 (S. pombe) = target: T1, GST-Hus5 (S. pombe) (UniProt P40984)
T1 sequence: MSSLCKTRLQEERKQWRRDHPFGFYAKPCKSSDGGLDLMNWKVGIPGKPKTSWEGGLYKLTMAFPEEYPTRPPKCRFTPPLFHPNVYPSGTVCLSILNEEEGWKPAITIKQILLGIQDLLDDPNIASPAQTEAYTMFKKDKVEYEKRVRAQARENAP

[1] = target: T2, GST-Rad60 (full length Rad60) (S. pombe) (UniProt Q9USX3)
T2 sequence: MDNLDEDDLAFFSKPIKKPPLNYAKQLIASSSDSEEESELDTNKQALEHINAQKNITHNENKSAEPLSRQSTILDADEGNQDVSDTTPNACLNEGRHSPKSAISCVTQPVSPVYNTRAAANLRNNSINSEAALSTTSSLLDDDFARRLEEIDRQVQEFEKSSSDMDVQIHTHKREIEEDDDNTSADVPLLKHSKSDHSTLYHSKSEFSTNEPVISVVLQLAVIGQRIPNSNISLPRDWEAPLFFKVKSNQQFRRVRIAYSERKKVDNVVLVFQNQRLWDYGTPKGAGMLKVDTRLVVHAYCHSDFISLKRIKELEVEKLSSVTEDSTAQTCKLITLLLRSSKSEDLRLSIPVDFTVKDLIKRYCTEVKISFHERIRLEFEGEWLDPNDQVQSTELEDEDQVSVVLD

[2] = target: T3, GST-Rad60-SLD2 (S. pombe) (UniProt Q9USX3)
T3 sequence: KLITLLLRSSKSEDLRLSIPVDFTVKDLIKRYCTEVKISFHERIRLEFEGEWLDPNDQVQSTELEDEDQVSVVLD

binding (GST-Hus5 (S. pombe)): binds | binding [1]: no binding | binding [2]: no binding
B1: His-SUMO (protein, UniProt O13351 1-111)
chain: MSESPSANISDADKSAITPTTGDTSQQDVKPSTEHINLKVVGQDNNEVFFKIKKTTEFSKLMKIYCARQGKSMNSLRFLVDGERIRPDQTPAELDMEDGDQIEAVLEQLGG
